# No constants are given. Whether binding was seen depends on the method and setting. Some entries that bind do so weakly or less than the wild type.
# Protein sequences, listed by entry. Tags and fused reporters are not part of them. Lines headed by an entry give the natural chain unless they say otherwise; changes in a name come on top. Chains listed by the source or under a name are the forms on record and can include a tag or linker.
# UniProt P41233: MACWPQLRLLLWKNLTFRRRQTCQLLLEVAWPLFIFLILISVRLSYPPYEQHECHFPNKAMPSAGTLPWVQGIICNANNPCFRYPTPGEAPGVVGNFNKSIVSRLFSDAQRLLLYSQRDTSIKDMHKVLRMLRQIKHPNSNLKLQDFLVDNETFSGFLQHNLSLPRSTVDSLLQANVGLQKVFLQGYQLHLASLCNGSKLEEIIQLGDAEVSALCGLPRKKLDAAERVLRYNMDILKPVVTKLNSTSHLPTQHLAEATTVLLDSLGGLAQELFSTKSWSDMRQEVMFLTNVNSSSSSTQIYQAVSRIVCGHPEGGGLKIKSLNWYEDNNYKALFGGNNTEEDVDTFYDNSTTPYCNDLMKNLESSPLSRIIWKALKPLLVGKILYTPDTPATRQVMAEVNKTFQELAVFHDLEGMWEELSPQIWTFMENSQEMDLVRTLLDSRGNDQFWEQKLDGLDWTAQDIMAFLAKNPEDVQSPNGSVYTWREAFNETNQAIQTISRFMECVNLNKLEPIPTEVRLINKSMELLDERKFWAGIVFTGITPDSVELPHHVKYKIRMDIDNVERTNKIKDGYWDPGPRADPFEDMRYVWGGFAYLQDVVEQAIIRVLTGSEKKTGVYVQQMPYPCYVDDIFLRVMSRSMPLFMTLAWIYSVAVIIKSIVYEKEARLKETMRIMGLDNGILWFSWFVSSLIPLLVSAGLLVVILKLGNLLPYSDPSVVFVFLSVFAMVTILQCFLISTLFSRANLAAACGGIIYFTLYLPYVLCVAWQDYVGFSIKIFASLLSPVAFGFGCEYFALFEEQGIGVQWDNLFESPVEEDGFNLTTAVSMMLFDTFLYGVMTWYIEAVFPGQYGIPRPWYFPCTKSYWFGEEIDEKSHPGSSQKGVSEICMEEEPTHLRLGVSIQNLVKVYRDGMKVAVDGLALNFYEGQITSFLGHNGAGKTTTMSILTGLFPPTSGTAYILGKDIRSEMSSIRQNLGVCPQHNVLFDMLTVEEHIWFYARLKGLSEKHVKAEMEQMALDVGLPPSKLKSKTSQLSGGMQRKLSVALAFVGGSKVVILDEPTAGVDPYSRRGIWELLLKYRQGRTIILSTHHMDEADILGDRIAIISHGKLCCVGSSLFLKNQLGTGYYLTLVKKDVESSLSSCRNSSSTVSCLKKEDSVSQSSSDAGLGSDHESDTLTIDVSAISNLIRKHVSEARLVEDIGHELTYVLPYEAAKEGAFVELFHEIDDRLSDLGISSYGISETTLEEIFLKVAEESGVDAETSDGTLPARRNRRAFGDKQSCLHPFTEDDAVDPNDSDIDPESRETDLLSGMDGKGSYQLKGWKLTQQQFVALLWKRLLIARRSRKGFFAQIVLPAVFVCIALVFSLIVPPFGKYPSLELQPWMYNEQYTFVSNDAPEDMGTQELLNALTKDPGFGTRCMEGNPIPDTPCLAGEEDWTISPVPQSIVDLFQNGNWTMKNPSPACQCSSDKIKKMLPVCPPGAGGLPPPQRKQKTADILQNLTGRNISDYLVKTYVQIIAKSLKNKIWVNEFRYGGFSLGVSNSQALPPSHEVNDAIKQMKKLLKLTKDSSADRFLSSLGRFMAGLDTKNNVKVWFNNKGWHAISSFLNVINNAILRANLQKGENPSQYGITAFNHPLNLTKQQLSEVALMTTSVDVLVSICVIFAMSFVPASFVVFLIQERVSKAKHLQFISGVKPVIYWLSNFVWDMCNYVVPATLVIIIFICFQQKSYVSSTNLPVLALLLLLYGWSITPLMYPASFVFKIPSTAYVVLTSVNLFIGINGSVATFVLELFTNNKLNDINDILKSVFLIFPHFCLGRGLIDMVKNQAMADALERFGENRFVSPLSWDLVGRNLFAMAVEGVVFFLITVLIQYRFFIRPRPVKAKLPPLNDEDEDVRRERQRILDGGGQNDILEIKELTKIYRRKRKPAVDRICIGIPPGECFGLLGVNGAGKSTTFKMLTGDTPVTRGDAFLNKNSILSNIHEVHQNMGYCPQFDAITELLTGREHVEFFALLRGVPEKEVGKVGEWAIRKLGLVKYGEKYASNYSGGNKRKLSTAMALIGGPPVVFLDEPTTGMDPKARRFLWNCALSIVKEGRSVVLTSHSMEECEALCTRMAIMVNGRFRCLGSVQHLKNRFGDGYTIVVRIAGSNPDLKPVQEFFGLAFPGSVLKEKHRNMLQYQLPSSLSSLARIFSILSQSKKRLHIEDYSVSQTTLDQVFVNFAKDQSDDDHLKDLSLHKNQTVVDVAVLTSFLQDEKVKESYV
# ABCA1MM EYFP (P41233, form named): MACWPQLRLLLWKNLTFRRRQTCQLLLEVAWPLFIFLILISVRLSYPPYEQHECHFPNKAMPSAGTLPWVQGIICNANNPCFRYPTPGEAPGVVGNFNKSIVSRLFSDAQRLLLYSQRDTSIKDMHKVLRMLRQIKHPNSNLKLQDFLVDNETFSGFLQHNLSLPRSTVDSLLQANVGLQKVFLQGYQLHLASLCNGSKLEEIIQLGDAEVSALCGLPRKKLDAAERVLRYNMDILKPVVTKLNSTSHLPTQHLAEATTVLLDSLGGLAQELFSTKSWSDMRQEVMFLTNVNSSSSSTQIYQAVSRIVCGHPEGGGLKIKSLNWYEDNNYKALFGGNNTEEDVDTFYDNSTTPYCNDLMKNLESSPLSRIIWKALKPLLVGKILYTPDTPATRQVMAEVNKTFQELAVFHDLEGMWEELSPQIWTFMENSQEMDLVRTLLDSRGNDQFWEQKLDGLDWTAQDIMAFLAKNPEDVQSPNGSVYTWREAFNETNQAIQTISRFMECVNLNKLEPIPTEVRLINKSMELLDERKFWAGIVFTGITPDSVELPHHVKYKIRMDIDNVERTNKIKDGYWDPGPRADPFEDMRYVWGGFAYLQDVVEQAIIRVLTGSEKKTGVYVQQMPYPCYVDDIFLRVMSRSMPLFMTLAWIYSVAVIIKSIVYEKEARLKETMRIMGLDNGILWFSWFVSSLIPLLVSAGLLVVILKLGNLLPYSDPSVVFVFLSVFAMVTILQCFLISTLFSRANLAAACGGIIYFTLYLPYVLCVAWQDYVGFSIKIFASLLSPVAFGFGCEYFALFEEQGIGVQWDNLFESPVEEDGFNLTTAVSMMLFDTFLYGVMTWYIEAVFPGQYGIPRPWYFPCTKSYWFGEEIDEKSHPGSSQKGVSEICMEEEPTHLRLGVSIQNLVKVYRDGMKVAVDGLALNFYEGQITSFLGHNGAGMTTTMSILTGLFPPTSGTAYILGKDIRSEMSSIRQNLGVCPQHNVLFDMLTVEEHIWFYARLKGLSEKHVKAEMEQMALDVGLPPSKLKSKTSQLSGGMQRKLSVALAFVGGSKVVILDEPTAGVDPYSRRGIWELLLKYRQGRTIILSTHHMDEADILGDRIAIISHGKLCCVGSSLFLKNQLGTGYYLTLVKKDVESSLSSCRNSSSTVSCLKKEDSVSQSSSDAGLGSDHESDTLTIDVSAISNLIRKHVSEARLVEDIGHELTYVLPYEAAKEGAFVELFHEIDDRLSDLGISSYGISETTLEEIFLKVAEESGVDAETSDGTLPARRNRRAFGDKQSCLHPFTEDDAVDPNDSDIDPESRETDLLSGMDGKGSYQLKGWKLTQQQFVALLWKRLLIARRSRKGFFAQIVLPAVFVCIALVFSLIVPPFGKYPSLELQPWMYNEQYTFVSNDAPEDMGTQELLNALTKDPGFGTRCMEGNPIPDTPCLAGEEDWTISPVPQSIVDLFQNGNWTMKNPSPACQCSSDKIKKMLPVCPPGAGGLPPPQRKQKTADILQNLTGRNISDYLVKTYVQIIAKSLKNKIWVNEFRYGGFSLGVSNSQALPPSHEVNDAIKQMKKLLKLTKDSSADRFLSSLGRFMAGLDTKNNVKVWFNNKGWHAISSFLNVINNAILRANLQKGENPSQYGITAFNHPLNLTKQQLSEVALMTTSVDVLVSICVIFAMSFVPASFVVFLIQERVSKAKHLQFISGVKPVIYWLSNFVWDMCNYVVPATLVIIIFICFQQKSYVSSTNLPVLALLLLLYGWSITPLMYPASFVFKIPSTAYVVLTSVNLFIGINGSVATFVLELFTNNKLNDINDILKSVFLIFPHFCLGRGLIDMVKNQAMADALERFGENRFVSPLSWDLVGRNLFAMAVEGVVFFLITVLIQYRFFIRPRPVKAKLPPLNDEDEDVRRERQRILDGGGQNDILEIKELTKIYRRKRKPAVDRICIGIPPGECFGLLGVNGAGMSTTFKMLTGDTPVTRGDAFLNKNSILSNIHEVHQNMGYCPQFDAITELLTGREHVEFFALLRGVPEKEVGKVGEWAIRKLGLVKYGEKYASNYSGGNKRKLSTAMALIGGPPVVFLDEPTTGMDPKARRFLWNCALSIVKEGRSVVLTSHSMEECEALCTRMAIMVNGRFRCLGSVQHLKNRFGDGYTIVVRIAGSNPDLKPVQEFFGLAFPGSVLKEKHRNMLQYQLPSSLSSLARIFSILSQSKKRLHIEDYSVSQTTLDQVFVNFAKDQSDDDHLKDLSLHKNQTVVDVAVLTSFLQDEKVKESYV
# Biological target: ABCA1MM EYFP (UniProt P41233)
# Test: native gel or EMSA; Deriphat native PAGE of lysates (1% α-DM, 150 mM NaCl, 50 mM TrisHCl pH 7.4) of HeLa cells co-transfected with MEGF10 and ABCA1 or ABCA1MM, 4°C; blots with anti-ABCA1 891.3 and anti-GFP
substance,measurement,value
ABCA1MM EYFP (from UniProt P41233 1-2261),binding,binds

# From publication PMC1762421
